Reference: patent publication US4948873A (Richter Gedeon Vegyeszeti Gyar, priority 1985, dated 1990)

Experiment: general procedure: solution-phase peptide synthesis; azide method (peptide hydrazide, sodium nitrite, HCl); pentafluorophenyl (OPFP)
[1] = late stage modification step, bis(trifluoroacetate), diacetate or dihydrochloride
[2] = late stage modification step, diacetate

Substance: Cbz-D(OMe)L[Arg(NO2)]P-NHEt
- step yield (coupling step, bis(trifluoroacetate), diacetate or dihydrochloride): 72%

Substance: Glp-His-Trp-Ser-Dbt-N2H3
- step yield [1]: 70%

Substance: Glp-His-Trp-Ser-Tyr-Asp(OMe)-Leu-Arg-Pro-ethyl-amide-bis(trifluoroacetate)
- step yield (coupling step, bis(trifluoroacetate)): 41.6%

Substance: Glp-His-Trp-Ser-Tyr-Asu-Leu-Arg-Pro-ethylamide diacetate
- step yield [2]: 98%

Substance: Glp-His-Trp-Ser-Tyr-Asu-Leu-Arg-Pro-ethylamide-dihydrochloride
- step yield (late stage modification step, dihydrochloride): 98.7%

Substance: H-Asu-Leu-Arg-Pro-ethylamide
- step yield [2]: 88%

Substance: H-D(OMe)LRP-NHEt
- step yield [2]: 87.3%

Substance: Z-Asu-Leu-Arg(NO2)-Pro-ethylamide
- step yield [1]: 98%

Square brackets hold non-standard residues; d marks the D form. * marks the point of attachment. Arg(NO2) = N=C(NCCC[C@H](N)C(=O)O)N[N+](=O)[O-]; Cbz = O=C(OCc1ccccc1)*
